# According to patent US7994311B2, “Fluorescent chemosensors for metals based on dipyrrins” (priority 2006, dated 2011):
# Experiment: Fluorescence quantum yield of dipyrrins, free and with Zn^2+
# Details: for increase of fluorescence quantum yield upon binding Zn^2+: Zn^2+ complex over free ligand; for fluorescence quantum yield (ΦF): excitation 432 nm, reference perylene in toluene
# Description: The conjugated (2) comprises a fluorophore with the […] moiety behaving as an ionphore. Benzaldehyde was used to form (2) because the properties shown by this type of sensing molecule with an benzene ring are representative of the general behavior of the family of compounds. In spite of the low fluorescence quantum yields of benzene, substituting benzene (ΦF=0.05±0.02) with a more intrinsically luminescent unit can make a great improvement in ΦF. An examples of another aromatic entity used instead of benzene is anthracene (ΦF0.27±0.03). When a […] attached to the benzene ring, the fluorescence quantum yield (ΦF) of (2) was very low and was determined to be 0.0011 due to the photo-induced electron transfer (PET), which is the intra-molecular quenching mechanism of an enamine group and an imine group in conjugate. When Zn^2+ bound with a […] moiety, PET was hindered and fluorescence emission intensity was recovered. […] Zn^2+, the fluorescence quantum yield was determined to be 0.07. […] (2), (3) and (4). The excitation wavelengths were 432, 475, 450 nm. The emission wavelengths were 496, 612, 497 and 599 nm for (2), (3) and (4). The ratio of fluorescence quantum yield [fluorescence quantum yield of metal ion/(2), (3) or (4) complex over fluorescence quantum yield of free ligand (10 μM)] was measured in acetonitrile.
Structure (SMILES),increase of fluorescence quantum yield upon binding Zn^2+ [fold],fluorescence quantum yield (ΦF) (after addition of 50 equiv. Zn^2+),fluorescence quantum yield (ΦF) (free ligand)
"C1=CC(=C(c2ccc[nH]2)c2ccc3ccc4cccc5ccc2c3c45)N=C1 [(4), 1-pyrenyldipyrrin]",68.2,,
"C1=CC(=C(c2ccccc2)c2ccc[nH]2)N=C1 [Compound (2), 5-phenyl-4,6-dipyrrin]",65.7,0.07,0.0011
